{
  "source": "patent US20090099105",
  "target": "T1, APOBEC-1 complementation factor (ACF) (UniProt Q9NQ94)",
  "T1 sequence (looked up, limits assumed)": "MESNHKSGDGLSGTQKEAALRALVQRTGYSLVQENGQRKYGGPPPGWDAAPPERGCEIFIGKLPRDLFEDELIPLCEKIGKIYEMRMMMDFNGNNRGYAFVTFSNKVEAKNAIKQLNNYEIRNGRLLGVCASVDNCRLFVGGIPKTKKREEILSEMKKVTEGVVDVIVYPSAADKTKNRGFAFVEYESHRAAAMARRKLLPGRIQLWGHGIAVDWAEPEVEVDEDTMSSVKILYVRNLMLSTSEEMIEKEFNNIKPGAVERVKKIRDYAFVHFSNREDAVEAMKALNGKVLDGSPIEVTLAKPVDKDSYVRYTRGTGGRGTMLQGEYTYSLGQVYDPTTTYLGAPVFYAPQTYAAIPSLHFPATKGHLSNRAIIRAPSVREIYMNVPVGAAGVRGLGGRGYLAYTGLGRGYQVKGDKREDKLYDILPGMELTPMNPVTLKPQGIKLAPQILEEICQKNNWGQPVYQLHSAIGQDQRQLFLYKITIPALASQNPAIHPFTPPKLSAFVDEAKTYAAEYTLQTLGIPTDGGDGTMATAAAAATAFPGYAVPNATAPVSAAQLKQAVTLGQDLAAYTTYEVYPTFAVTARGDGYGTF",
  "experiment": "binding assay",
  "settings": "CITED background value, no experiment described; source of protein not stated; flanks deaminated C6666; purified recombinant protein",
  "note": "For at least one entry, the source does not settle the construct or the ends of the probe. Protein sequences can lack the tags named with them.",
  "data": [
    {"sequence": "UGAUCAGUAUA [apoB mRNA mooring sequence]", "values": [
      {"measurement": "Kd", "value": 8, "unit": "nM"}
    ]}
  ]
}
